Test results: PubChem BioAssay AID1671190 (National Center for Advancing Translational Sciences (NCATS), 2021)
Among all 580,000 compounds or so, about 6,100 (1.1%) were called active. Inconclusive results, whose numbers are uncertain, are shown with a selection of clear calls. The call rests on the fitted dose curve; in most records, active means well fitted inhibition curve with a large enough effect; inconclusive means small, poorly fitted or top-dose-only effect, or another doubt; inactive means no such curve, though single readings can be large or run the other way. Where the call is inconclusive, the potency comes from a doubtful curve fit.

Chains of the proteins cited; added tags and fusions are not shown. Lines headed by an entry give the natural chain unless they say otherwise; changes in a name come on top.
UniProt P18054: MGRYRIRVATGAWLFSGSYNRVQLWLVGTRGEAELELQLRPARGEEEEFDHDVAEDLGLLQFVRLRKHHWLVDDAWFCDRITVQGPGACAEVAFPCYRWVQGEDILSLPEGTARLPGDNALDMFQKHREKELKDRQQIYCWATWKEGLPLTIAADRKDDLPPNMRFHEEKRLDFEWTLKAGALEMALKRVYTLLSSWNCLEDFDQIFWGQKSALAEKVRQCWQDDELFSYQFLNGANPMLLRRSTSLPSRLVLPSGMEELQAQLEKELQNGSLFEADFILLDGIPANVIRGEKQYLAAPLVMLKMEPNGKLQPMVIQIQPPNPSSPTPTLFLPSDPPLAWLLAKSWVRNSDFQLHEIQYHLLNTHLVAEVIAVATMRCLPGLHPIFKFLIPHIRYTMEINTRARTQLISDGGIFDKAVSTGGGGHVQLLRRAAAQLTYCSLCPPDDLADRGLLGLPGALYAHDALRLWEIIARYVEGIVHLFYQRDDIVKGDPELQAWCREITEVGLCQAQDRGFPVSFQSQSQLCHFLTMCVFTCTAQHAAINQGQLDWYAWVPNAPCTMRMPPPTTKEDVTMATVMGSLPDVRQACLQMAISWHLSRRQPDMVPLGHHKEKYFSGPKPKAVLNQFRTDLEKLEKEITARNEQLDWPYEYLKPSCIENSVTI

Target: Polyunsaturated fatty acid lipoxygenase ALOX12 (Homo sapiens) (UniProt P18054)
Experiment: Primary qHTS assay for inhibitors of human arachidonate 12S-lipoxygenase (ALOX12): Round 2
Settings: purified 12hLO, xylenol orange hydroperoxide absorbance; series mostly up to 108 µM
Procedure, shortened: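 Hydroperoxide product was detected by ferrous iron/xylenol orange as the 573 to 405 nm absorbance ratio. Arachidonic acid at 40 uM (final) was turned over for 30 min at room temperature by 150 nM human 12hLO, pH 7.0 Hepes buffer, after 15 min compound preincubation.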
Potency means the concentration at half of the fitted maximal effect.

Compound	Potency
CC(Oc1ccc(Br)cc1)c1nc(-c2ccccn2)no1 (configuration not stated)	inconclusive: 158 µM [inhibitor, single point]
Brc1ccc(CN2CCc3nc(N4CCN(c5ncccn5)CC4)ncc3C2)cc1	inconclusive: 39.8 µM [inhibitor, partial curve, poor fit]
CCN(c1ccc(NC(=O)COc2ccccc2C(=O)c2cc(C#N)c(=O)n(C3CC3)c2)cc1)C(C)C	inconclusive: 14.1 µM [inhibitor, partial curve, poor fit]
O=C(c1cc(-c2ccco2)nc2ccccc12)N1CCCC1	inconclusive: 100 µM [inhibitor, single point]
CC(=O)c1ccc(S(=O)(=O)NCC(=O)N2CCN(C/C=C/c3ccccc3)CC2)cc1	inactive
O=C1CCC(=O)N(c2ccccc2)N1	inconclusive: 44.7 µM [inhibitor, partial curve, poor fit]
O=c1ccn([C@@H]2O[C@H](COP(=O)(O)OP(=O)(O)O)[C@@H](O)[C@H]2O)c(=O)[nH]1	inconclusive: 35.5 µM [inhibitor, partial curve, poor fit]
Cc1ccc(C(=O)NCCC(=O)N2CCCC2)cc1	inconclusive: 44.7 µM [inhibitor, partial curve, poor fit]
O=C(NC1=NCCS1)c1ccc(OCC2CCCO2)cc1 (configuration not stated)	inactive
Cc1ccccc1NC(=O)CSc1nc2ccccc2c2nc(CCn3c(C)nc4ccccc43)nn12	inconclusive: 141 µM [inhibitor, partial curve, poor fit]
Cc1ccc(-c2nnc(SCC(=O)N3CCC(C)CC3)n2N)cc1	inconclusive: 79.4 µM [inhibitor, single point]
CC(/C=N/NC(=O)CN1CCN(Cc2ccc(Cl)cc2)CC1)=C\c1ccco1	inconclusive: 79.4 µM [inhibitor, partial curve, poor fit]
C=CCNC(=O)C(=O)NCc1cccc(OC)c1	inactive
CCn1nc(C(=O)NC(c2cccs2)C(C)C)c2ccccc2c1=O (configuration not stated)	inconclusive: 126 µM [inhibitor, single point]
Cc1cc(=O)oc(C)c1C(=O)NCc1c(F)cc(F)cc1F	inconclusive: 44.7 µM [inhibitor, partial curve, poor fit]
Cc1cc(C)cc(NC(=O)Cn2c(=O)oc3cc(S(=O)(=O)N4CC(C)CC(C)C4)ccc32)c1 (configuration not stated)	inconclusive: 39.8 µM [inhibitor, partial curve, poor fit]
CCc1ccc(N2CCN(CCNC(=O)Nc3ccc(OC)cc3)CC2)cc1	inconclusive: 31.6 µM [inhibitor, single point]
Cc1ccc(S(=O)(=O)NC(C)(C)CN2CCC(Cc3ccccc3)CC2)cc1	inconclusive: 12.6 µM [inhibitor, full curve, poor fit]
NS(=O)(=O)c1ccc(NC(=S)NNC(=O)c2cccs2)cc1	inconclusive: 39.8 µM [inhibitor, partial curve, poor fit]

Grouped by structure, the compounds so far containing four or more nitrogen atoms
Compound	Potency
Brc1ccc(CN2CCc3nc(N4CCN(c5ncccn5)CC4)ncc3C2)cc1	inconclusive: 39.8 µM [inhibitor, partial curve, poor fit]
CCN(c1ccc(NC(=O)COc2ccccc2C(=O)c2cc(C#N)c(=O)n(C3CC3)c2)cc1)C(C)C	inconclusive: 14.1 µM [inhibitor, partial curve, poor fit]
Cc1ccccc1NC(=O)CSc1nc2ccccc2c2nc(CCn3c(C)nc4ccccc43)nn12	inconclusive: 141 µM [inhibitor, partial curve, poor fit]
Cc1ccc(-c2nnc(SCC(=O)N3CCC(C)CC3)n2N)cc1	inconclusive: 79.4 µM [inhibitor, single point]
CC(/C=N/NC(=O)CN1CCN(Cc2ccc(Cl)cc2)CC1)=C\c1ccco1	inconclusive: 79.4 µM [inhibitor, partial curve, poor fit]
CCc1ccc(N2CCN(CCNC(=O)Nc3ccc(OC)cc3)CC2)cc1	inconclusive: 31.6 µM [inhibitor, single point]
NS(=O)(=O)c1ccc(NC(=S)NNC(=O)c2cccs2)cc1	inconclusive: 39.8 µM [inhibitor, partial curve, poor fit]

(further entries)

Compound	Potency
COc1ccc(CNC(=O)c2ccc3c(=O)n(-c4cc(OC)ccc4OC)cnc3c2)cc1	inactive
CC(=O)Nc1ccc(CNc2nc(NCCN(C)C)nc3cc(-c4ccccc4)sc23)cc1	inconclusive: 31.6 µM [inhibitor, partial curve, poor fit]
Cc1cccc(OCC(=O)N2CCC3(CC2)NC(=O)N(c2ccc(F)cc2)N3)c1	active: 4.47 µM
COc1ccc(S(=O)(=O)N2CCN(C(=O)c3cn[nH]c3-c3ccccc3)CC2)cc1	inconclusive: 126 µM [inhibitor, partial curve, poor fit]
COC(=O)[C@H](Cc1ccc(OC)cc1)NC(=O)[C@H]1CN(C(C)=O)CCN1C(=O)C1CCCCC1	inactive
CC(C)C[C@H]1CN([C@@H](CC(C)C)CN2CCCC2CN2C(=S)NC[C@@H]2Cc2ccccc2)C(=S)N1CCc1ccccc1 (some centres not stated)	inconclusive: 39.8 µM [inhibitor, partial curve, poor fit]
CC(=O)O[C@@H]1C=C[C@@H](C#Cc2ccc(C(C)(C)C)cc2)O[C@@H]1COC(=O)NCc1ccccc1	inconclusive: 44.7 µM [inhibitor, partial curve, poor fit]
CCOc1ccc(NC(=O)Cn2c(=O)n(Cc3ccc(C(=O)NCc4ccc(C)cc4)cc3)c(=O)c3ccccc32)cc1	inconclusive: 89.1 µM [inhibitor, partial curve, poor fit]
CN(C)c1ncc2nc(-c3cccc(C#N)c3)c(=O)n(C)c2n1	inconclusive: 39.8 µM [inhibitor, single point]
CC(=NNC(=S)N1CCN(c2ccccn2)CC1)c1ccccn1	inconclusive: 44.7 µM [inhibitor, partial curve, poor fit]
CCCCCCN(C(=O)CCl)c1ccccc1	inconclusive: 39.8 µM [inhibitor, partial curve, poor fit]
Cc1ccc(S(=O)(=O)N2C[C@H]3N(C(=O)OC(C)C)N(C(=O)OC(C)C)C[C@H](OC(=O)Nc4cccs4)[C@@]3(O)C2)cc1	inconclusive: 50.1 µM [inhibitor, partial curve, poor fit]
CN(CC1CCOCC1)C(=O)Cc1ccsc1	inconclusive: 20 µM [inhibitor, partial curve, poor fit]
CCc1nnc(NC(=O)CSc2nccn2-c2cccc(C)c2C)s1	inactive
C/C(Cl)=C\Cn1c(Nc2ccccc2)nc2c1c(=O)n(C)c(=O)n2C	inconclusive: 44.7 µM [inhibitor, partial curve, poor fit]
CCCCC/C=C/C1=CC(=O)C[C@H](c2ccc(Cl)cc2)C1	active: 35.5 µM
CCOC(=O)c1cccc(Nc2nc3ccccc3nc2NS(=O)(=O)c2ccc(C)cc2)c1	inconclusive: 44.7 µM [inhibitor, partial curve, poor fit]
CCOC(=O)C[C@@H]1C[C@@H](C(C)C)[C@H](CNC(=O)c2ccc(F)cc2)C=C1C	inconclusive: 56.2 µM [inhibitor, partial curve, poor fit]
